Measurements reported in US20090203041A1, “BMP4 INHIBITORS” (priority 2006, published 2009).
These are yes or no findings as the source states them, for the method shown. Binding seen in cells or lysates may run through a third protein. Some results given as binding are weak or reduced against the parent protein; the word gives no strength.

What was measured:
[1] = molecular target: T1, endogenous BMP4 precursor protein (50 kDa precursor form, fetal mouse tissue) (mouse) (UniProt P21275); test: co-immunoprecipitation, immunoblot (FIG. 1B legend)
T1 sequence (looked up): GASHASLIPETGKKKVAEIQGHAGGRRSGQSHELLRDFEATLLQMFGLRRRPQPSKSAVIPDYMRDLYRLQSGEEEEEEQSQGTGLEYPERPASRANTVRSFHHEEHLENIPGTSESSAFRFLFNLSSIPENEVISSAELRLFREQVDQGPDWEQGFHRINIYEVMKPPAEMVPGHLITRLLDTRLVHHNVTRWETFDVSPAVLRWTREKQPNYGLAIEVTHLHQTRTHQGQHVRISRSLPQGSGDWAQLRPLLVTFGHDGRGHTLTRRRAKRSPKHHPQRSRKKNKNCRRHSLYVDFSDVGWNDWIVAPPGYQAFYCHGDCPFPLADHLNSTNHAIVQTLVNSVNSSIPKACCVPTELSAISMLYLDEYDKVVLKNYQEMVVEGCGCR

[2] = molecular target: T1, endogenous BMP4 precursor protein (50 kDa precursor form, fetal mouse tissue) (mouse); test: co-immunoprecipitation with anti-Gremlin antibody from fetal mouse lung lysate, anti-BMP4 immunoblot

binding [1]: binds
binding [2]: binds
B1: endogenous Gremlin protein (fetal mouse lung and kidney tissue lysates) (protein)
chain: KKKGSQGAIPPPDKAQHNDSEQTQSPPQPGSRTRGRGQGRGTAMPGEEVLESSQEALHVTERKYLKRDWCKTQPLKQTIHEEGCNSRTIINRFCYGQCNSFYIPRHIRKEEGSFQSCSFCKPKKFTTMMVTLNCPELQPPTKKKRVTRVKQCRCISIDLD
